Measurements from PMC11078644, “Nesprin-2 is a novel scaffold protein for telethonin and FHL-2 in the cardiomyocyte sarcomere” (The Journal of Biological Chemistry, 2024).
These are yes or no findings as the source states them, for the method shown. In cells and extracts the contact can be indirect. A result given as binding can be weak or reduced; the word gives no strength. Tags and fused reporters may be left off the sequences shown.

Legend:
GFP-tagged FHL-2 WT = target: T1, GFP-tagged FHL-2 WT (UniProt Q14192); test: co-IP; Flag-tagged nesprin-2 SR51-53 and GFP-FHL-2 overexpressed in C2C12 myoblasts; IP with GFP antibody; blot with Flag and Nes-2N3 antibodies
T1 sequence: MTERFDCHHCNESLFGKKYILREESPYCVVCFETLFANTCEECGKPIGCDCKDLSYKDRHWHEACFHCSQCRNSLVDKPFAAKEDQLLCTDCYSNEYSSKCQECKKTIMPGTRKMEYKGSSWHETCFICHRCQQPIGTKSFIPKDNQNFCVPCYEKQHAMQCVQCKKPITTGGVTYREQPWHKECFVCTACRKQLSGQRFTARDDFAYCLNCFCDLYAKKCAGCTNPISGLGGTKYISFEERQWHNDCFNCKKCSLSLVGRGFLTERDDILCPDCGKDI

[1] = target: T2, GST-nesprin-2 SR51-53 (amino acids 6018-6354) (human) (UniProt Q8WXH0); test: pull-down; GST-nesprin-2 beads incubated with GFP-tagged FHL-2 proteins; Western blot
T2 sequence: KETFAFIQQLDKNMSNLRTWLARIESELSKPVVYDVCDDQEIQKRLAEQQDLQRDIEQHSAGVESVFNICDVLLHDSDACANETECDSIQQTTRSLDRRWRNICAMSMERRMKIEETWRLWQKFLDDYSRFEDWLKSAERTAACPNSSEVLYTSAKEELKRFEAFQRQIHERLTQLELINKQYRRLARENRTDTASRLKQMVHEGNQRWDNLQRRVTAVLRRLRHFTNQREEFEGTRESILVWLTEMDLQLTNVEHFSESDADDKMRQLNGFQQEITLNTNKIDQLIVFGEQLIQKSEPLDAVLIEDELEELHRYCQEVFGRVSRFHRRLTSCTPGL

Row | Substance | binding (GFP-tagged FHL-2 WT) | binding [1]
1 | FLAG-tagged nesprin-2 SR51-53 (human) (domain or fragment) | binds | 
2 | GFP-tagged FHL-2 LIM-2 domain (domain or fragment) |  | binds
